Data: PubChem BioAssay AID188 (DTP/NCI, 2004)
Shown are survivors of the treated group in tumour-free mice. Survivors were counted at the toxicity check, usually on the fifth day, unless a day is given; later deaths do not show. Schedules are NCI's codes, taken here to give the interval after Q, in days (D) or hours (H), and the number of doses after X.

System: CD2F1 mice, nontumored, toxicity/survival
Assay: NCI In Vivo Anticancer Drug Screen. Data for tumor model Nontumored Animals (Toxicity Test) in CD2F1 (CDF1) mice
Conditions: vehicle: alkali diluted with saline

Structure (SMILES): Nc1nncs1
- survivor count (dose: 4.0 mg/kg/injection, schedule: Q03HX024 (ip)): 8 of 8
- survivor count (dose: 8.0 mg/kg/injection, schedule: Q03HX008 (ip)): 8 of 8
- survivor count (dose: 8.0 mg/kg/injection, schedule: Q03HX016 (ip)): 8 of 8
- survivor count (dose: 8.0 mg/kg/injection, schedule: Q03HX024 (ip)): 8 of 8
- survivor count (dose: 16.0 mg/kg/injection, schedule: Q01DX005 (iv)): 8 of 8
- survivor count (dose: 16.0 mg/kg/injection, schedule: Q01DX009 (ip)): 8 of 8
- survivor count (dose: 16.0 mg/kg/injection, schedule: Q01DX009 (sc)): 8 of 8
- survivor count (dose: 16.0 mg/kg/injection, schedule: Q03HX008 (ip)): 8 of 8
- survivor count (dose: 16.0 mg/kg/injection, schedule: Q03HX016 (ip)): 8 of 8
- survivor count (dose: 16.0 mg/kg/injection, schedule: Q03HX024 (ip)): 8 of 8
- survivor count (dose: 32.0 mg/kg/injection, schedule: Q01DX001 (iv)): 8 of 8
- survivor count (dose: 32.0 mg/kg/injection, schedule: Q01DX005 (iv)): 8 of 8
- survivor count (dose: 32.0 mg/kg/injection, schedule: Q01DX009 (ip)): 8 of 8
- survivor count (dose: 32.0 mg/kg/injection, schedule: Q01DX009 (sc)): 8 of 8
- survivor count (dose: 32.0 mg/kg/injection, schedule: Q03HX008 (ip)): 8 of 8
- survivor count (dose: 32.0 mg/kg/injection, schedule: Q03HX016 (ip)): 8 of 8
- survivor count (dose: 32.0 mg/kg/injection, schedule: Q03HX024 (ip)): 7 of 8
- survivor count (dose: 32.0 mg/kg/injection, schedule: Q04DX003 (ip)): 8 of 8
- survivor count (dose: 64.0 mg/kg/injection, schedule: Q01DX001 (ip)): 8 of 8
- survivor count (dose: 64.0 mg/kg/injection, schedule: Q01DX001 (iv)): 8 of 8
- survivor count (dose: 64.0 mg/kg/injection, schedule: Q01DX001 (oral)): 6 of 8
- survivor count (dose: 64.0 mg/kg/injection, schedule: Q01DX001 (sc)): 8 of 8
- survivor count (dose: 64.0 mg/kg/injection, schedule: Q01DX005 (iv)): 8 of 8
- survivor count (dose: 64.0 mg/kg/injection, schedule: Q01DX009 (ip)): 8 of 8
- survivor count (dose: 64.0 mg/kg/injection, schedule: Q01DX009 (oral)): 8 of 8
- survivor count (dose: 64.0 mg/kg/injection, schedule: Q01DX009 (sc)): 8 of 8
- survivor count (dose: 64.0 mg/kg/injection, schedule: Q03HX008 (ip)): 8 of 8
- survivor count (dose: 64.0 mg/kg/injection, schedule: Q03HX016 (ip)): 7 of 8
- survivor count (dose: 64.0 mg/kg/injection, schedule: Q03HX024 (ip)): 5 of 8
- survivor count (dose: 64.0 mg/kg/injection, schedule: Q04DX003 (ip)): 8 of 8
- survivor count (dose: 64.0 mg/kg/injection, schedule: Q08DX002 (ip)): 8 of 8
- survivor count (dose: 128.0 mg/kg/injection, schedule: Q01DX001 (ip)): 8 of 8
- survivor count (dose: 128.0 mg/kg/injection, schedule: Q01DX001 (iv)): 8 of 8
- survivor count (dose: 128.0 mg/kg/injection, schedule: Q01DX001 (oral)): 7 of 8
- survivor count (dose: 128.0 mg/kg/injection, schedule: Q01DX001 (sc)): 8 of 8
- survivor count (dose: 128.0 mg/kg/injection, schedule: Q01DX005 (iv)): 8 of 8
- survivor count (dose: 128.0 mg/kg/injection, schedule: Q01DX009 (ip)): 8 of 8
- survivor count (dose: 128.0 mg/kg/injection, schedule: Q01DX009 (oral)): 5 of 8
- survivor count (dose: 128.0 mg/kg/injection, schedule: Q01DX009 (sc)): 8 of 8
- survivor count (dose: 128.0 mg/kg/injection, schedule: Q03HX008 (ip)): 7 of 8
- survivor count (dose: 128.0 mg/kg/injection, schedule: Q03HX016 (ip)): 8 of 8
- survivor count (dose: 128.0 mg/kg/injection, schedule: Q04DX003 (ip)): 8 of 8
- survivor count (dose: 128.0 mg/kg/injection, schedule: Q08DX002 (ip)): 8 of 8
- survivor count (dose: 256.0 mg/kg/injection, schedule: Q01DX001 (ip)): 8 of 8
- survivor count (dose: 256.0 mg/kg/injection, schedule: Q01DX001 (iv)): 8 of 8
- survivor count (dose: 256.0 mg/kg/injection, schedule: Q01DX001 (oral)): 5 of 8
- survivor count (dose: 256.0 mg/kg/injection, schedule: Q01DX001 (sc)): 8 of 8
- survivor count (dose: 256.0 mg/kg/injection, schedule: Q01DX005 (iv)): 4 of 8
- survivor count (dose: 256.0 mg/kg/injection, schedule: Q01DX009 (ip)): 5 of 8
- survivor count (dose: 256.0 mg/kg/injection, schedule: Q01DX009 (oral)): 3 of 8
- survivor count (dose: 256.0 mg/kg/injection, schedule: Q01DX009 (sc)): 6 of 8
- survivor count (dose: 256.0 mg/kg/injection, schedule: Q04DX003 (ip)): 8 of 8
- survivor count (dose: 256.0 mg/kg/injection, schedule: Q08DX002 (ip)): 8 of 8
- survivor count (dose: 512.0 mg/kg/injection, schedule: Q01DX001 (ip)): 8 of 8
- survivor count (dose: 512.0 mg/kg/injection, schedule: Q01DX001 (iv)): 8 of 8
- survivor count (dose: 512.0 mg/kg/injection, schedule: Q01DX001 (oral)): 6 of 8
- survivor count (dose: 512.0 mg/kg/injection, schedule: Q01DX001 (sc)): 8 of 8
- survivor count (dose: 512.0 mg/kg/injection, schedule: Q01DX009 (oral)): 1 of 8
- survivor count (dose: 512.0 mg/kg/injection, schedule: Q04DX003 (ip)): 8 of 8
- survivor count (dose: 512.0 mg/kg/injection, schedule: Q08DX002 (ip)): 8 of 8
- survivor count (dose: 1024.0 mg/kg/injection, schedule: Q01DX001 (ip)): 8 of 8
- survivor count (dose: 1024.0 mg/kg/injection, schedule: Q01DX001 (oral)): 8 of 8
- survivor count (dose: 1024.0 mg/kg/injection, schedule: Q01DX001 (sc)): 8 of 8
- survivor count (dose: 1024.0 mg/kg/injection, schedule: Q01DX009 (oral)): 1 of 8
- survivor count (dose: 1024.0 mg/kg/injection, schedule: Q08DX002 (ip)): 8 of 8
